One data set has as its system DNA of HeLa cells. The data set can be described thus: pH dependence of platinum incorporation into DNA (neutron activation). It is filed as cell-based, Human. Conditions: 16 hours.
The next data set has as its system HeLa cells. The data set can be described thus: pH dependence of platinum incorporation, total cells (neutron activation). The following applies: 4 hours. It is filed as cell-based, Human.

For `N.N.[Cl][Pt][Cl]` [cisplatin], the “Platinum content DNA” value is listed as 14.6 ng/mg with DNA of HeLa cells (pH 6.8, 33 μM) and 140 ng/mg in the data set with DNA of HeLa cells (pH 7.4, 33 μM). Besides, the “Platinum content total cells” value is 140 ng/10^7 cells with HeLa cells (pH 6.8, 33 μM) and 156 ng/10^7 cells with HeLa cells (pH 7.4, 33 μM).

Regarding `CCOC1=[S+][Pt-2]2([S]1)[S]C(OCC)=[S+]2` [Example 1, bis-[O-ethyldithiocarbanato]Platinum (II)], the “Platinum content DNA” value came to 13870 ng/mg in the data set with DNA of HeLa cells (pH 6.8, 33 μM) and 1760 ng/mg in the data set with DNA of HeLa cells (pH 7.4, 33 μM). The “Platinum content total cells” value with HeLa cells (pH 6.8, 33 μM) was determined as 4780 ng/10^7 cells; with HeLa cells (pH 7.4, 33 μM), 3680 ng/10^7 cells.

Values taken from patent US6881751B2, “Medicament containing platinum complex compounds and the use thereof” (Ruprecht Karls Universitat, priority 1998, dated 2005).
